# The supplement of paper PMC8728848
# The other results are listed elsewhere or left out.
# B1: PX14379D-pdi-530-26-530 (Parabacteroides distasonis) (protein)
# chain: DETVYDKLPADDFGQSTAELNALIGNSHNTMKKFWTEYMHLSECSGSMAVTPTRRGGDWYDGGQYREIYMHTWTSQTSRVKSAWKAATEAIGTCNEAIRKLQNSEILTEEEKAQDVADLRGVRAFWIYVMMDYWGNIPLLTEFHPTDKVFPGNSSRQEVFDWLIQEVEEIKDICPPATTENYGSFTQGAAYSLLAKLYLNAEAWGVTFSGNAYQKVIDNCDKVMAMGYILEPNWKDNFSVTNENSKEAILAATFSSSDTGNDGNVKNELHNNTLHYKDYLSLGITASGTWNGICAQPEYVRLFDEEDARLDGTFLTGLMIDKSTGKPIMTDHNNELNHTIDVNMIPGMEYDGTNWSAVEQHDGARCFKWEFASDLTSSMGNDFHIFRLADIYLMKAEALLRGGGSVSEATALVNTIRERGYGNSDHNYATVTLKEVQLERRLELAWEVYSRQDDIRFGCFTTGMWPQSNCERKADDYLKLLPVSQDAWQVNPNLKQNPGYAAFSK
# Assays:
# Experiment in all cases: glycan array binding signal (z-score within array); higher = stronger binding
# Conditions in all cases: glycan notation: IUPAC condensed, linker removed
# GalNAc(b1-3)Gal = molecular target: GalNAc(b1-3)Gal
# Method in brief: (§1)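 The binding signal is a Z-score computed within each array. Data were drawn from 3228 arrays in the Consortium for Functional Glycomics database, restricted to those with a known protein sequence. Scores were averaged over arrays of the same protein sequence at different concentrations or buffers, and over linkers, and negative values can be taken as non-binding.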
# [1] = molecular target: GalNAc(b1-3)Gal(a1-4)Gal(b1-4)GlcNAc
# Method in brief: as §1
# [2] = molecular target: GalNAc(b1-3)Gal(a1-4)Gal(b1-4)GlcNAc(b1-3)Gal(b1-4)Glc
# Method in brief: as §1
# [3] = molecular target: GalNAc(b1-3)Gal(a1-6)Gal(b1-4)Glc
# Method in brief: as §1
# GalNAc(b1-3)GalNAc = molecular target: GalNAc(b1-3)GalNAc
# Method in brief: as §1
# GalNAc(b1-3)GlcNAc = molecular target: GalNAc(b1-3)GlcNAc
# Method in brief: as §1
# GalNAc(b1-4)Gal(b1-4)Glc = molecular target: GalNAc(b1-4)Gal(b1-4)Glc
# Method in brief: as §1
# GalNAc(b1-4)GlcNAc = molecular target: GalNAc(b1-4)GlcNAc
# Method in brief: as §1
# [4] = molecular target: GalNAc(b1-4)GlcNAc(b1-2)Man
# Method in brief: as §1
# [5] = molecular target: GalNAc(b1-4)GlcNAc(b1-2)Man(a1-3)[GalNAc(b1-4)GlcNAc(b1-2)Man(a1-6)]Man(b1-4)GlcNAc(b1-4)GlcNAc
# Method in brief: as §1
# [6] = molecular target: GalNAc(b1-4)GlcNAc(b1-3)GalNAc(b1-4)GlcNAc
# Method in brief: as §1
# GalNAc(b1-4)GlcNAc6S = molecular target: GalNAc(b1-4)GlcNAc6S
# Method in brief: as §1
# GalNAc(b1-6)GalNAc = molecular target: GalNAc(b1-6)GalNAc
# Method in brief: as §1
# GalNAc3S(b1-4)GlcNAc = molecular target: GalNAc3S(b1-4)GlcNAc
# Method in brief: as §1
# GalNAc3S(b1-4)GlcNAc3S = molecular target: GalNAc3S(b1-4)GlcNAc3S
# Method in brief: as §1
# [7] = molecular target: GalNAc3S(b1-4)[Fuc(a1-3)]GlcNAc
# Method in brief: as §1
# GalNAc4S6S(b1-4)GlcNAc = molecular target: GalNAc4S6S(b1-4)GlcNAc
# Method in brief: as §1
# GalNAc6S(b1-4)GlcNAc = molecular target: GalNAc6S(b1-4)GlcNAc
# Method in brief: as §1
# Glc(a1-4)Glc = molecular target: Glc(a1-4)Glc
# Method in brief: as §1
# [8] = molecular target: Glc(a1-4)Glc(a1-4)Glc(a1-4)Glc
# Method in brief: as §1
# Glc(a1-6)Glc(a1-6)Glc = molecular target: Glc(a1-6)Glc(a1-6)Glc
# Method in brief: as §1
# [9] = molecular target: Glc(a1-6)Glc(a1-6)Glc(a1-6)Glc
# Method in brief: as §1
# Glc(b1-4)Glc = molecular target: Glc(b1-4)Glc
# Method in brief: as §1
# Glc(b1-6)Glc = molecular target: Glc(b1-6)Glc
# Method in brief: as §1
# GlcA(b1-3)Gal = molecular target: GlcA(b1-3)Gal
# Method in brief: as §1
# GlcA(b1-3)GlcNAc = molecular target: GlcA(b1-3)GlcNAc
# Method in brief: as §1
# GlcA(b1-6)Gal = molecular target: GlcA(b1-6)Gal
# Method in brief: as §1
# [10] = molecular target: GlcA3S(b1-3)Gal(b1-4)GlcNAc(b1-2)Man
# Method in brief: as §1
# [11] = molecular target: GlcA3S(b1-3)Gal(b1-4)GlcNAc(b1-3)Gal(b1-4)Glc
# Method in brief: as §1
# [12] = molecular target: GlcNAc(a1-3)Gal(b1-4)GlcNAc
# Method in brief: as §1
# [13] = molecular target: GlcNAc(a1-4)Gal(b1-3)GlcNAc
# Method in brief: as §1
# [14] = molecular target: GlcNAc(a1-4)Gal(b1-4)GalNAc
# Method in brief: as §1
# [15] = molecular target: GlcNAc(a1-4)Gal(b1-4)GlcNAc
# Method in brief: as §1
# [16] = molecular target: GlcNAc(a1-4)Gal(b1-4)GlcNAc(b1-3)Gal(b1-4)Glc
# Method in brief: as §1
# [17] = molecular target: GlcNAc(a1-4)Gal(b1-4)GlcNAc(b1-3)Gal(b1-4)GlcNAc
# Method in brief: as §1
# [18] = molecular target: GlcNAc(a1-4)Gal(b1-4)GlcNAc(b1-3)Gal(b1-4)GlcNAc(b1-3)Gal(b1-4)GlcNAc
# Method in brief: as §1
# [19] = molecular target: GlcNAc(a1-4)Gal(b1-4)GlcNAc(b1-3)Gal(b1-4)[Fuc(a1-3)]GlcNAc(b1-3)Gal(b1-4)[Fuc(a1-3)]GlcNAc
# Method in brief: as §1
# [20] = molecular target: GlcNAc(a1-6)Gal(b1-4)GlcNAc
# Method in brief: as §1
binder,measurement,setting,value
B1,glycan array binding signal (z-score),GalNAc(b1-3)Gal,0.356
same,glycan array binding signal (z-score),[1],0.271
same,glycan array binding signal (z-score),[2],-0.07
same,glycan array binding signal (z-score),[3],-0.06
same,glycan array binding signal (z-score),GalNAc(b1-3)GalNAc,0.569
same,glycan array binding signal (z-score),GalNAc(b1-3)GlcNAc,-0.841
same,glycan array binding signal (z-score),GalNAc(b1-4)Gal(b1-4)Glc,-0.159
same,glycan array binding signal (z-score),GalNAc(b1-4)GlcNAc,0.849
same,glycan array binding signal (z-score),[4],-0.381
same,glycan array binding signal (z-score),[5],2.64
same,glycan array binding signal (z-score),[6],0.853
same,glycan array binding signal (z-score),GalNAc(b1-4)GlcNAc6S,1.07
same,glycan array binding signal (z-score),GalNAc(b1-6)GalNAc,0.442
same,glycan array binding signal (z-score),GalNAc3S(b1-4)GlcNAc,0.427
same,glycan array binding signal (z-score),GalNAc3S(b1-4)GlcNAc3S,-0.774
same,glycan array binding signal (z-score),[7],-0.515
same,glycan array binding signal (z-score),GalNAc4S6S(b1-4)GlcNAc,-0.487
same,glycan array binding signal (z-score),GalNAc6S(b1-4)GlcNAc,-0.028
same,glycan array binding signal (z-score),Glc(a1-4)Glc,-0.561
same,glycan array binding signal (z-score),[8],0.448
same,glycan array binding signal (z-score),Glc(a1-6)Glc(a1-6)Glc,-0.519
same,glycan array binding signal (z-score),[9],-0.407
same,glycan array binding signal (z-score),Glc(b1-4)Glc,0.179
same,glycan array binding signal (z-score),Glc(b1-6)Glc,-0.859
same,glycan array binding signal (z-score),GlcA(b1-3)Gal,0.111
same,glycan array binding signal (z-score),GlcA(b1-3)GlcNAc,-1.04
same,glycan array binding signal (z-score),GlcA(b1-6)Gal,0.146
same,glycan array binding signal (z-score),[10],-0.312
same,glycan array binding signal (z-score),[11],-0.229
same,glycan array binding signal (z-score),[12],-0.139
same,glycan array binding signal (z-score),[13],-0.512
same,glycan array binding signal (z-score),[14],-0.622
same,glycan array binding signal (z-score),[15],-0.498
same,glycan array binding signal (z-score),[16],-1.06
same,glycan array binding signal (z-score),[17],-0.378
same,glycan array binding signal (z-score),[18],0.721
same,glycan array binding signal (z-score),[19],0.085
same,glycan array binding signal (z-score),[20],0.342

# Laid out differently: entries from further up.
binder	measurement	setting	value
B1	glycan array binding signal (z-score)	[3]	-0.06
same	glycan array binding signal (z-score)	[6]	0.853
